Consider 28 molecules from the supplement of paper PMC10735217.

The structures appear in SMILES notation. The list shows a part of the results. This data set is noisy: repeats of one test often differ as much as different tests do.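 Human kidney-derived cells stably carry a construct in which eight TEAD-binding elements drive luciferase, measured by luminescence in a drug-repurposing library screen. A hit is any compound whose signal exceeds the plate mean by more than five robust Z scores.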

The test has as its system HEK293A TEAD-LUC reporter. Description: TEAD-luciferase reporter activity (YAP activation), robust Z score vs plate; higher = stronger YAP/TEAD activation. To be noted: 24 h. In general terms: A reporter such as luciferase makes a cellular process visible.

For `CCc1cnn2c(NCc3ccc[n+]([O-])c3)cc(N3CCCC[C@H]3CCO)nc12` [Dinaciclib], the TEAD-luciferase reporter activity is inactive: -0.902 (compound concentration: 200 nM), inactive: -2.21 (compound concentration: 2 uM) and inactive: -2.36 (compound concentration: 10 uM).

Regarding `COC(=O)c1cnc(Nc2cccc(Cl)c2)nc1C(F)(F)F`, the TEAD-luciferase reporter activity reads like this: (compound concentration: 200 nM) inactive: -0.328; (compound concentration: 2 uM) inactive: 1.42; (compound concentration: 10 uM) inactive: 1.04.

As for `CCN(CC)C(C)CC(=O)Nc1ccccc1` (configuration not stated), the TEAD-luciferase reporter activity was inactive: 0.528 (compound concentration: 200 nM), inactive: -1.19 (compound concentration: 2 uM) and inactive: -1.04 (compound concentration: 10 uM).

As for `CC(=O)OCC(COC(C)=O)OCn1cnc2cnc(N)nc21`, the TEAD-luciferase reporter activity reads like this: (compound concentration: 200 nM) inactive: -1.82; (compound concentration: 2 uM) inactive: -0.418; (compound concentration: 10 uM) inactive: -0.0183.

Turning to `CCCN(CCC)C(=O)C(CCC(=O)OCCCN1CCN(CCOC(=O)Cc2c(C)n(C(=O)c3ccc(Cl)cc3)c3ccc(OC)cc23)CC1)NC(=O)c1ccccc1` (configuration not stated) [Proglumetacin], the TEAD-luciferase reporter activity is inactive: -0.922 (compound concentration: 200 nM), inactive: -0.782 (compound concentration: 2 uM) and inactive: 0.125 (compound concentration: 10 uM).

As to `N[C@@H](Cc1c[nH]oc1=O)C(=O)O`, the TEAD-luciferase reporter activity was inactive: -1.54 (compound concentration: 200 nM), inactive: -0.0899 (compound concentration: 2 uM) and inactive: -0.743 (compound concentration: 10 uM).

In the case of `CC1(C)OC(=O)C(OCC2CC2)=C1c1ccc(S(C)(=O)=O)cc1` [Firocoxib], the TEAD-luciferase reporter activity is inactive: -0.899 (compound concentration: 200 nM), inactive: 1.56 (compound concentration: 2 uM) and inactive: -1.23 (compound concentration: 10 uM).

Turning to `CCC(=O)O[C@]1(C(=O)COC)[C@@H](C)C[C@H]2[C@@H]3CCC4=CC(=O)C=CC4(C)[C@@]3(F)[C@@H](O)CC21C` (some centres not stated), the TEAD-luciferase reporter activity reads like this: (compound concentration: 200 nM) inactive: 0.77; (compound concentration: 2 uM) inactive: -0.719; (compound concentration: 10 uM) inactive: 3.73.

For `N[C@@H]1[C@H]2CN(c3nc4c(cc3F)c(=O)c(C(=O)O)cn4-c3ccc(F)cc3F)C[C@@H]12` [trovafloxacin mesilate], the TEAD-luciferase reporter activity runs as follows: (compound concentration: 200 nM) inactive: -0.785; (compound concentration: 2 uM) inactive: -0.594; (compound concentration: 10 uM) inactive: 0.189.

With `CS(=O)(=O)c1ccc(C2=C(c3ccc(F)cc3)C(=O)OC2)c(F)c1`, the TEAD-luciferase reporter activity was inactive: -1.21 (compound concentration: 200 nM), inactive: -0.429 (compound concentration: 2 uM) and inactive: 0.394 (compound concentration: 10 uM).

As for `CCCCCCCCCCCCCCCCSCC(COC)COP(=O)([O-])OCC[N+](C)(C)C` (configuration not stated) [Ilmofosine], the TEAD-luciferase reporter activity is inactive: 4.16 (compound concentration: 200 nM), inactive: -0.154 (compound concentration: 2 uM) and inactive: 2.44 (compound concentration: 10 uM).

Take `CCCC[C@H](CN(O)C=O)C(=O)N1CCC[C@H]1C(=O)Nc1ccc(F)c[n+]1[O-]`: the TEAD-luciferase reporter activity (compound concentration: 200 nM) is inactive: 0.127, the TEAD-luciferase reporter activity (compound concentration: 2 uM) was inactive: -0.153 and the TEAD-luciferase reporter activity (compound concentration: 10 uM) was inactive: -0.681.

Consider `CC(C)CCCC(C)C1CCC2C3CCC4C[C@H](N5CC(OS(C)(=O)=O)C5)CC[C@]4(C)C3CC[C@]12C` (some centres not stated), for which the TEAD-luciferase reporter activity is, setting by setting: (compound concentration: 200 nM) inactive: -0.454; (compound concentration: 2 uM) inactive: -0.584; (compound concentration: 10 uM) inactive: 4.42.

Regarding `CC1(C)C(=O)Nc2ccc(C3=NNC(=O)CC3)cc21`, the TEAD-luciferase reporter activity is inactive: 0.145 (compound concentration: 200 nM), inactive: 0.315 (compound concentration: 2 uM) and inactive: 0.062 (compound concentration: 10 uM).

In the case of `Cc1ccc2c(Cl)cc(Cl)c(O)c2n1`, the TEAD-luciferase reporter activity is inactive: -0.421 (compound concentration: 200 nM), inactive: 0.688 (compound concentration: 2 uM) and inactive: -1.24 (compound concentration: 10 uM).

Consider `O=C(O)c1ccccc1Nc1cccc(C(F)(F)F)c1`, for which, where the note is “compound concentration: 2 uM”, the TEAD-luciferase reporter activity is inactive: -1.85.

Regarding `O=C(O)c1ccccc1Nc1cccc(C(F)(F)F)c1` [Flufenamic acid], the TEAD-luciferase reporter activity by setting is: (compound concentration: 200 nM) inactive: -1.02; (compound concentration: 10 uM) inactive: 1.25.

For `N[C@@H](C(=O)N[C@@H]1C(=O)N2C(C(=O)O)=C(CSc3c[nH]nn3)CS[C@H]12)c1ccc(O)cc1` [cefatrizine, Ausonia], the TEAD-luciferase reporter activity (compound concentration: 2 uM) is inactive: -0.642.

For the molecule `N[C@@H](C(=O)N[C@@H]1C(=O)N2C(C(=O)O)=C(CSc3c[nH]nn3)CS[C@H]12)c1ccc(O)cc1`, the TEAD-luciferase reporter activity (compound concentration: 200 nM) was inactive: -1.47 and the TEAD-luciferase reporter activity (compound concentration: 10 uM) is inactive: 2.44.

`COc1cc2c(Nc3ccc(Cl)c(Cl)c3F)ncnc2cc1OCC1C[C@@H]2CN(C)C[C@@H]2C1` (some centres not stated) [tesevatinib, Kadmon Corporation]: the TEAD-luciferase reporter activity was inactive: -2.26 (compound concentration: 200 nM), inactive: -1.59 (compound concentration: 2 uM) and inactive: -1.77 (compound concentration: 10 uM).

As for `COC(=O)CCN1CCN(c2cccc(SC(F)(F)F)c2)CC1` [phenylpiperazines], the TEAD-luciferase reporter activity was inactive: 0.537 (compound concentration: 200 nM), inactive: -1.01 (compound concentration: 2 uM) and inactive: 1.79 (compound concentration: 10 uM).

Consider `C[S+](C)CCOC(=O)C(c1ccccc1)C1CCCCC1` (configuration not stated), for which the TEAD-luciferase reporter activity was inactive: 1.47 (compound concentration: 200 nM), inactive: 1.68 (compound concentration: 2 uM) and inactive: -1.25 (compound concentration: 10 uM).

On to `CC1(C)Oc2ccc(OC(F)(F)F)cc2C(N2Cc3ccccc3C2=O)C1O` (configuration not stated), for which the TEAD-luciferase reporter activity reads like this: (compound concentration: 200 nM) inactive: 0.018; (compound concentration: 2 uM) inactive: 0.544; (compound concentration: 10 uM) inactive: 1.89.

As for `CN1CCC(OC(=O)C(Oc2ccc(Cl)cc2)Oc2ccc(Cl)cc2)CC1`, the TEAD-luciferase reporter activity (compound concentration: 200 nM) is inactive: -1.12, the TEAD-luciferase reporter activity (compound concentration: 2 uM) is inactive: -1.03 and the TEAD-luciferase reporter activity (compound concentration: 10 uM) was inactive: 2.31.

In the case of `CCCCCCCCCCCCC(C#N)(CCCN(C)CCc1cccc(OC)c1)c1cccc(OC)c1` (configuration not stated), the TEAD-luciferase reporter activity runs as follows: (compound concentration: 200 nM) inactive: 2.12; (compound concentration: 2 uM) inactive: -1.03; (compound concentration: 10 uM) inactive: -1.45.

For `NCCN1CCN(c2cc(-c3ccccc3)c(C(F)(F)F)nn2)CC1`, the TEAD-luciferase reporter activity is, setting by setting: (compound concentration: 2 uM) inactive: -1.11; (compound concentration: 10 uM) active: 5.74.

Consider `C1=CN2CC(c3cccs3)N=C2S1` (configuration not stated), for which the TEAD-luciferase reporter activity is inactive: 0.248 (compound concentration: 200 nM), inactive: 0.347 (compound concentration: 2 uM) and inactive: -1.62 (compound concentration: 10 uM).

With `CC[C@](O)(c1nnc(NCc2ccc3c(-c4ccc(F)cc4)cc(=O)oc3c2)o1)C(F)(F)F` [setileuton], the TEAD-luciferase reporter activity reads like this: (compound concentration: 200 nM) inactive: -2.89; (compound concentration: 2 uM) inactive: -0.938; (compound concentration: 10 uM) inactive: -0.286.
